The record followed here is paper PMC8456090.

By UniProt entry, the sequences of proteins in these tests, tags left out. Residues count along the entry.
UniProt Q9NZQ7, residues 19-290: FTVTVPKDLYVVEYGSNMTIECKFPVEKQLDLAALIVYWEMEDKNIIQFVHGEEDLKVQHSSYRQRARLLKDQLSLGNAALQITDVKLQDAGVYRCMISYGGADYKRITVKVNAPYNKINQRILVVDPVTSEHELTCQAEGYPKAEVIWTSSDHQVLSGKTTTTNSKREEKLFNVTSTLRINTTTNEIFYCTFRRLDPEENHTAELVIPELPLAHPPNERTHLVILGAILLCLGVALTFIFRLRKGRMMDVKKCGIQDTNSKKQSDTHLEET

No constants are given. Whether binding was seen depends on the method and setting. Binding seen in cells or lysates may run through a third protein. Some entries that bind do so weakly or less than the wild type.

Experiment [1] has as its target T1, UL16-binding protein 1 (human (endogenous in MHCC97H and PLC/PRF/5)) (UniProt Q9BZM6).
T1 sequence: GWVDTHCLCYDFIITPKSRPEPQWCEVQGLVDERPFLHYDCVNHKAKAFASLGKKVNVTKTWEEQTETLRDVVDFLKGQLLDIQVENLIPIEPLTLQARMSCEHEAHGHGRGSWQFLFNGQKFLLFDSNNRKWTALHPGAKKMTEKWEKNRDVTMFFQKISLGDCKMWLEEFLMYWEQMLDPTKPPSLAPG
The experiment can be described thus: co-IP; protein extracted from PLC/PRF/5 and MHCC97H cells, incubated with antibodies for ULBP1, PD-L1 or IgG overnight; protein A/G-agarose beads 4 h; Western blot for ULBP1 and PD-L1.

Experiment [2] concerns the target programmed cell death-ligand 1 (human (endogenous in MHCC97H and PLC/PRF/5)) (UniProt Q9NZQ7). Described as above.

Take “programmed cell death-ligand 1 (from UniProt Q9NZQ7 19-290)”: the binding entry in experiment [1] is listed as “binds”.

B1: UL16-binding protein 1 (protein, UniProt Q9BZM6 26-216)
chain: GWVDTHCLCYDFIITPKSRPEPQWCEVQGLVDERPFLHYDCVNHKAKAFASLGKKVNVTKTWEEQTETLRDVVDFLKGQLLDIQVENLIPIEPLTLQARMSCEHEAHGHGRGSWQFLFNGQKFLLFDSNNRKWTALHPGAKKMTEKWEKNRDVTMFFQKISLGDCKMWLEEFLMYWEQMLDPTKPPSLAPG
As to B1, the binding result in experiment [2] was “binds”.
